Publication PMC10387068
Results are given in words; binding and its absence hold for the method and conditions named. Binding seen in cells or lysates may run through a third protein. Some results given as binding are weak or reduced against the parent protein; the word gives no strength. Tags and fused reporters may be left off the sequences shown.

Amino acid sequences for entries named in this document (tags omitted). Residues count along the entry.
UniProt Q13467, residues 27-585: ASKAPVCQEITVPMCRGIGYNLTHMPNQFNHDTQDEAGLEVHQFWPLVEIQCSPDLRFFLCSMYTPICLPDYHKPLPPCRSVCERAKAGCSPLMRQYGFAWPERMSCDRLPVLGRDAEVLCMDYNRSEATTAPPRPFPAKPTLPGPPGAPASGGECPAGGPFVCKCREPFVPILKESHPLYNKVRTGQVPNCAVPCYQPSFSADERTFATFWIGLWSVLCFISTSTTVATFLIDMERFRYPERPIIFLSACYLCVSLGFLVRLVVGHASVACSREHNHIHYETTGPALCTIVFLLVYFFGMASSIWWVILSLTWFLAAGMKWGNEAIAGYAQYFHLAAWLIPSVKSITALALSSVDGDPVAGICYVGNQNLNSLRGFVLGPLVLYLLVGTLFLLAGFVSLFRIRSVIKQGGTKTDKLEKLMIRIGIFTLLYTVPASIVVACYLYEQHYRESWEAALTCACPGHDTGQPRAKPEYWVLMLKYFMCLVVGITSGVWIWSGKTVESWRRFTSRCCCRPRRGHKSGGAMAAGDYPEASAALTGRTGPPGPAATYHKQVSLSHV

Assays:
[1] = target: T1, FZD10-Nluc (wild type) (human) (UniProt Q9ULW2); assay: FRET or BRET; direct BRET titration in living HEK293A cells: constant amount of receptor-Nluc plasmid (donor), increasing amounts of DEP-Venus plasmid (acceptor); no WNT added (constitutive); HBSS, coelenterazine h 5 µM, 37 °C; net BRET fitted with a one site-specific binding equation (BRET50, BRETmax)
T1 sequence: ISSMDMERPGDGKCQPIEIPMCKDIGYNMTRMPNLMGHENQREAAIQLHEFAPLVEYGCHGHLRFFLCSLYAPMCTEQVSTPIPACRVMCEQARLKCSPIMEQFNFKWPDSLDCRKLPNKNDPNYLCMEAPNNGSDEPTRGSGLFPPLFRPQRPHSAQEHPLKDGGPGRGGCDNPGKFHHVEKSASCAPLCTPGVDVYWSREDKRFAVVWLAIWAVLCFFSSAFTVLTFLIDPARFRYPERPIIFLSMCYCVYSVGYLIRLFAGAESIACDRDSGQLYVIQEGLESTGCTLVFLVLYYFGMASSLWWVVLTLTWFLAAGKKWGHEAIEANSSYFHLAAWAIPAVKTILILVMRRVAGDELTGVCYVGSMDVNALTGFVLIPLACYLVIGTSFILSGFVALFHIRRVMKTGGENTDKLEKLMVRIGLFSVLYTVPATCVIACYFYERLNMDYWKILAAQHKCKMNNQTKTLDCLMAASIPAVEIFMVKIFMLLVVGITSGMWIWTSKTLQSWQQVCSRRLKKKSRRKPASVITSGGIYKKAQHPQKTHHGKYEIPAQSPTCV

[2] = target: FZD5-Nluc (wild-type human Frizzled-5, C-terminally tagged with Nanoluciferase) (human) (UniProt Q13467); assay: as above

B1: DEP-Venus (isolated DEP domain of human DVL2 tagged with mVenus) (domain or fragment, UniProt O14641 433-507)
chain: PESGLEVRDRMWLKITIPNAFLGSDVVDWLYHHVEGFPERREARKYASGLLKAGLIRHTVNKITFSEQCYYVFGD
binding [1]: binds | binding [2]: binds
